According to article PMC5713326:
These are yes or no findings as the source states them, for the method shown. Binding seen in cells or lysates may run through a third protein. Some results given as binding are weak or reduced against the parent protein; the word gives no strength.

Amino acid sequences for entries named in this document (tags omitted).
UniProt O60260: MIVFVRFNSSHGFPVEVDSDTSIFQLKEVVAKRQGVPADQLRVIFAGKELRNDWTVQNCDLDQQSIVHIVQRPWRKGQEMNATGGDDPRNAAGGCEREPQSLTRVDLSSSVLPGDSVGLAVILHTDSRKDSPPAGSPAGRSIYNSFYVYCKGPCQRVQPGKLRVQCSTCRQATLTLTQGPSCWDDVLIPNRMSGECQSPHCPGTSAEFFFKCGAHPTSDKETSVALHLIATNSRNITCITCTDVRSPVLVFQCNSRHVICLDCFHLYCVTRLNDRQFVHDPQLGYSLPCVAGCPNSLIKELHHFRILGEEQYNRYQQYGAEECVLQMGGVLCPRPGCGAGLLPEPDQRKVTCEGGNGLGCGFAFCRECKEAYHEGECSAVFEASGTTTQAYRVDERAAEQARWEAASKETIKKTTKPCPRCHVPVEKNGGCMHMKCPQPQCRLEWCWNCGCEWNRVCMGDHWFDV
UniProt O88597: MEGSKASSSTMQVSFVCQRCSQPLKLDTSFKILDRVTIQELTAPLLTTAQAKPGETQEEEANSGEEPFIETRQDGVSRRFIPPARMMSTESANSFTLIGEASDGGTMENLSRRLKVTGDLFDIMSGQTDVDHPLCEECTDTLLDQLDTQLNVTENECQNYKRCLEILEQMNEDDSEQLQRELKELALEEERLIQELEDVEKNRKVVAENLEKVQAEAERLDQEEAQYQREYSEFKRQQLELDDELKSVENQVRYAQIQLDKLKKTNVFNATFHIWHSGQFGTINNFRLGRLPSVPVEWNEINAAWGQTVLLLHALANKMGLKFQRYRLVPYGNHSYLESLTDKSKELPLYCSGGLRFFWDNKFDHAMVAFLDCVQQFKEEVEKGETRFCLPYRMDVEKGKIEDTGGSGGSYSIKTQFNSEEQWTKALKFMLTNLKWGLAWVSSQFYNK
UniProt Q14457: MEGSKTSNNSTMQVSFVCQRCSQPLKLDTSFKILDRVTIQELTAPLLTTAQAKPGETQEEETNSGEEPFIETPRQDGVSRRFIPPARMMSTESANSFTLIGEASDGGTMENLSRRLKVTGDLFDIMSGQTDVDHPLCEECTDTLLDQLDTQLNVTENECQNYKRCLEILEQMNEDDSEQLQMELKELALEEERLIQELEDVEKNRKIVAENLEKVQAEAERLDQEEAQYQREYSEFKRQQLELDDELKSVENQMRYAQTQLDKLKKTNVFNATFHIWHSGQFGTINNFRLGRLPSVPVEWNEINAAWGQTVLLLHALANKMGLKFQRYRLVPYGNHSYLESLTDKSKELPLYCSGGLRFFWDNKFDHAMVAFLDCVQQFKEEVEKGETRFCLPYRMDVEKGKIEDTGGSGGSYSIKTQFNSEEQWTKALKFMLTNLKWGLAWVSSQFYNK

Legend:
[1] = biological target: T1, PARK2 (Parkinson disease (autosomal recessive, juvenile) 2), mouse, endogenous in NIH/3T3 fibroblasts (mouse (endogenous in NIH/3T3)) (UniProt Q9WVS6); assay: co-IP; endogenous proteins in fibroblast lysates (NIH/3T3 and MRC-5); IP lysis buffer 50 mM Tris, 1 mM EDTA, 0.5% NP-40, 150 mM NaCl, 10% glycerol, 1 mM PMSF; IP overnight at 4 °C with anti-PARK2 or anti-BECN1 monoclonal antibody and protein A/G agarose beads, control IgG as negative control; Western blot
T1 sequence: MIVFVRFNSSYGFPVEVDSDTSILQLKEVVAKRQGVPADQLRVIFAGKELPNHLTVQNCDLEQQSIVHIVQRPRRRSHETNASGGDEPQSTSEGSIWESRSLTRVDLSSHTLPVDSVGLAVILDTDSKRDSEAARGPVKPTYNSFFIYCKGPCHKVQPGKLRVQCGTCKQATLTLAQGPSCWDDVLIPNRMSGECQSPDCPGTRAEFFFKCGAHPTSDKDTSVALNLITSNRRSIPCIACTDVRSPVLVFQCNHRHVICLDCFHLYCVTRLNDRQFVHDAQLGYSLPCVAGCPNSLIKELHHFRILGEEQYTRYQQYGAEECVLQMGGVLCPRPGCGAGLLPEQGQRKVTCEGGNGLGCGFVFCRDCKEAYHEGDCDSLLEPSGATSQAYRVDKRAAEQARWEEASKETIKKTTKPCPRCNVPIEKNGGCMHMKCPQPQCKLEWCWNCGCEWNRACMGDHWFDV

[2] = biological target: PARK2 (Parkinson disease (autosomal recessive, juvenile) 2), human, endogenous in MRC-5 fibroblasts (human (endogenous in MRC-5)) (UniProt O60260); assay: as above

Row | Substance | binding [1] | binding [2]
1 | BECN1 (Beclin 1, autophagy-related), mouse, endogenous in NIH/3T3 fibroblasts (from UniProt O88597 1-448) | binds | 
2 | BECN1 (Beclin 1, autophagy-related), human, endogenous in MRC-5 fibroblasts (from UniProt Q14457 1-450) |  | binds
